# Measured values published in patent publication US8586707B2 (The Research Foundation of State University of New York, priority 2008, dated 2013).
# [ ]: non-standard residue; d: D form. Aib = CC(C)(N)C(=O)O
# Assay: general procedure: Fmoc solid-phase peptide synthesis; Rink-amide resin; HBTU/NMM; HBTU/HOBt/DIEA
substance,measurement,setting,value
Ac-LTFαHYWAQLβS-NH2,cyclisation yield,"cyclisation step, cyclic, sequence written open",74%
Ac-VK(Ac)L[Aib]VK(Ac)L-NH2,isolated yield,"whole synthesis, based on resin substitution",5%
Ac-Val-Lys(Pyr)-Leu-Aib-Val-Lys(Ac)-Leu-NH2,step yield,late stage modification step,16%
